Measurements: the supplement of paper PMC10373366
The other results are listed elsewhere or left out. Many values rest on one well or one pass, so single values are uncertain.

The molecules below were run on patient-derived ovarian cancer cells (PDC) (assay: cell growth inhibition ratio vs untreated control (CCK8); higher = stronger inhibition of cell viability). Details: 10 µM; 48 h.
Protocol: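 Natural product library (Topscience) screened at 10 µM final concentration for 48 h on ovarian cancer A2780 cells and patient-derived ovarian cancer cells (PDC) in 96-well plates; viability read by CCK8 and reported as inhibition ratio (%) relative to untreated control. Single-dose primary screen.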

SMILES	cell growth inhibition ratio
OC[C@H]1O[C@@H](Oc2cc(O)cc(/C=C/c3ccc(O)cc3)c2)[C@H](O)[C@@H](O)[C@@H]1O [Polydatin]	5.17%
NC(=O)c1ccc[n+]([C@@H]2O[C@H](COP(=O)([O-])OP(=O)(O)OC[C@H]3O[C@@H](n4cnc5c(N)ncnc54)[C@H](O)[C@@H]3O)[C@@H](O)[C@H]2O)c1 [Cozymasei(NAD+)]	-16.8%
CCCCCCCCCCCC1=C(O)C(=O)C=C(O)C1=O [Embelin]	9.33%
Cc1c(C)c2c(c(C)c1O)CC[C@@](C)(CCC[C@H](C)CCC[C@H](C)CCCC(C)C)O2 [Vitamin E]	3.66%
CC(C)[C@H](NC(=O)[C@H](CC(=O)O)NC(=O)[C@H](CCCCN)NC(=O)[C@@H](N)CCCN=C(N)N)C(=O)N[C@@H](Cc1ccc(O)cc1)C(=O)O [Thymopentin]	-13.3%
NCCC[C@H](N)C(=O)O [L-Ornithine]	-5.74%
C[C@@H]1O[C@@H](O[C@H]2[C@H](O[C@H]3[C@H](O[C@H]4CC[C@]5(C)[C@H]6CC=C7[C@@H]8CC(C)(C)CC[C@]8(C(=O)O)CC[C@@]7(C)[C@]6(C)CC[C@H]5C4(C)C)OC[C@H](O)[C@@H]3O)O[C@H](CO)[C@@H](O)[C@@H]2O)[C@H](O)[C@H](O)[C@H]1O [Raddeanin(Anemodeanin) A]	91.7%
C[N+](C)(C)CC(O)CC(=O)[O-] (racemic) [DL-Carnitine]	-13.3%
CC(C)=CCC[C@](C)(O)[C@H]1CC[C@]2(C)[C@@H]1[C@H](O)C[C@@H]1[C@@]3(C)CC[C@H](O)C(C)(C)[C@@H]3[C@@H](O[C@@H]3O[C@H](CO)[C@@H](O)[C@H](O)[C@H]3O[C@@H]3O[C@@H](C)[C@H](O)[C@@H](O)[C@H]3O)C[C@]12C [Ginsenoside Rg2]	-0.0738%

Two neighbouring entries already listed, quoted:
SMILES	cell growth inhibition ratio
OC[C@H]1O[C@@H](Oc2cc(O)cc(/C=C/c3ccc(O)cc3)c2)[C@H](O)[C@@H](O)[C@@H]1O [Polydatin]	5.17%
NC(=O)c1ccc[n+]([C@@H]2O[C@H](COP(=O)([O-])OP(=O)(O)OC[C@H]3O[C@@H](n4cnc5c(N)ncnc54)[C@H](O)[C@@H]3O)[C@@H](O)[C@H]2O)c1 [Cozymasei(NAD+)]	-16.8%
